Experimental data taken from paper PMC5078848, “NtKRP, a kinesin-12 protein, regulates embryo/seed size and seed germination via involving in cell cycle progression at the G2/M transition” (Scientific Reports, 2016).

Molecular target: NtKRP fragment including both phosphorylation sites (1–2262 bp), pGBKT7 fusion (Nicotiana tabacum)
Assay: two-hybrid; Matchmaker GAL4 system; NtKRP fragments in pGBKT7-Rec, CDKA;1 in pGADT7-Rec; yeast AH109 co-transformed; growth on SD/-Leu/Trp/His/Ade

CDKA;1, pGADT7 fusion (from UniProt Q40482) (enzyme)
binding: binds

Results are given in words; binding and its absence hold for the method and conditions named. A result given as binding can be weak or reduced; the word gives no strength.
